Test results from paper PMC7819943, “Rice protein-binding microarrays: a tool to detect cis-acting elements near promoter regions in rice”.
This is one part of the list.

biological target: T1, OsSMF1 (Oryza sativa, UniProt Q6ZLB0 1-436); test: protein-binding microarray (RPBM); PBS, 2% BSA, 51.3 ng/ul salmon testes DNA, 50 uM zinc acetate, 200 nM TF, 25 C, 1 h; high values mean tight binding; settings: protein: recombinant; tags: N-terminal polyhistidine and DsRed monomer fusion (pET32a); chain copies: 2; label: CyDye5-dUTP incorporated in the synthesized complementary strand; 3' TTTTT single-stranded linker to array surface; dsDNA, one strand shown
T1 sequence: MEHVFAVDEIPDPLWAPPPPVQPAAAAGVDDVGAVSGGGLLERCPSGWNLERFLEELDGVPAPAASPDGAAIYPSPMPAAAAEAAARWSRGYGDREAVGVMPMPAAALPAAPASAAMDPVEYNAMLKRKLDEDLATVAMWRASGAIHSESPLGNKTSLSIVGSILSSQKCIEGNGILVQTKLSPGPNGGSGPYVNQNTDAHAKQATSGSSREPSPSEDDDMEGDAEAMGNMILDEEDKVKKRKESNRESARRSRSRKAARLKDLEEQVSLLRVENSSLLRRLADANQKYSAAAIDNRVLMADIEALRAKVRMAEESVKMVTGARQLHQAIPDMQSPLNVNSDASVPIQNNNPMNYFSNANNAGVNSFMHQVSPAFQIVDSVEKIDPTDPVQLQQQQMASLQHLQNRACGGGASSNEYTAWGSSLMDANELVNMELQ
In short: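 Per-feature fluorescence intensity (arbitrary units), read on an Axon 4000B scanner, is the binding signal. Transcription factors carrying an N-terminal polyhistidine tag and DsRed fusion were expressed in E. coli BL21-CodonPlus and purified on Ni–NTA. A custom Agilent array, made double-stranded by primer extension with Cy5-dUTP and blocked with 2% BSA, was incubated with 200 nM protein in PBS, 2% BSA, salmon testes DNA and 50 µM zinc acetate at 25 °C for 1 h and then washed.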

Sequence	binding signal
TGGCTTATGATTATGACCTGGAAGTATAACTGTTTCTGGTCGGAGTCACCTAGTGCAG	3760 fluorescence intensity (a.u.)
TCCTCTCAATCCGCACCGCCACGCCATACCTCCTTCCACTCGGAGTCACCTAGTGCAG	5060 fluorescence intensity (a.u.)
CGCGCCATCGGCACGCTGGGCCAACACGGCACGGTGGACCCGGAGTCACCTAGTGCAG	3820 fluorescence intensity (a.u.)
CTGACATACGCTGTCACTGACATGCGGGACCCCTGGTTGACGGAGTCACCTAGTGCAG	3770 fluorescence intensity (a.u.)
ATTCACTTTCTTGATTACGTAGAAGCTTCAGTGTCTATTCCGGAGTCACCTAGTGCAG	3810 fluorescence intensity (a.u.)
TGTGTTGAAAAGATAAACTAATAGTAGTGATATTACTCGACGGAGTCACCTAGTGCAG	3160 fluorescence intensity (a.u.)
AGCCAACACCGTCAGGTGGGCCCCGCGTACGGGCCCACCACGGAGTCACCTAGTGCAG	3460 fluorescence intensity (a.u.)
CACTGTAGTAGTGAGCCGCTTTGATGAAGTGGCGAAGTGGCGGAGTCACCTAGTGCAG	3280 fluorescence intensity (a.u.)
GACGTACCTTACTTCAAGACTTGAAGTGGCCACGCAGTGGCGGAGTCACCTAGTGCAG	3400 fluorescence intensity (a.u.)
TTGGAAGGTATGTGTGGCTGCTTCTTCCTAGCAATTGGATCGGAGTCACCTAGTGCAG	3250 fluorescence intensity (a.u.)
TAGTTATCGGCGCGCCCTCGTGTCTGCCCGAGCTGTTCTTCGGAGTCACCTAGTGCAG	4300 fluorescence intensity (a.u.)
GTCTGGCTGCTGATGGTGATGATGCTGACTTGTGACGAGTCGGAGTCACCTAGTGCAG	3620 fluorescence intensity (a.u.)
GTTCAGTTCACGCGCGACACCAGCAGCCTGCCTCATCACCCGGAGTCACCTAGTGCAG	4040 fluorescence intensity (a.u.)
GGAGGCCCATTGATTCCTACGTGGGCTGGGCCGAACACGGCGGAGTCACCTAGTGCAG	3280 fluorescence intensity (a.u.)
AAGATAGTGACGTACGTGCGGCCCATACCCCAATTCTCCCCGGAGTCACCTAGTGCAG	5840 fluorescence intensity (a.u.)
GAAAATTGTGCTTCTATTGTGTCACTACACGTTAAGTGTCCGGAGTCACCTAGTGCAG	4140 fluorescence intensity (a.u.)
GGTGGGGTTTATAACCGACGTGGCTTGTACGGATGGACGGCGGAGTCACCTAGTGCAG	5030 fluorescence intensity (a.u.)
AGCTTTATGACGATAAAGAATCACGCTTACGTGAGTGTGCCGGAGTCACCTAGTGCAG	3950 fluorescence intensity (a.u.)
AGAATGAGAGATCTAGTCATGTCGTCCTATACTCCGGCTACGGAGTCACCTAGTGCAG	4470 fluorescence intensity (a.u.)
TCTCCCCTCTCCTTCCTCCTCTCCTTTCCCCTCCTCTCTTCGGAGTCACCTAGTGCAG	17100 fluorescence intensity (a.u.)
GGGATGCTTTGTATTCGGTTTTGCGGTTGAATGACGCAACCGGAGTCACCTAGTGCAG	4050 fluorescence intensity (a.u.)

Quoted at random: 2 records from the list, in no set order.
Sequence	binding signal
AGCCAACACCGTCAGGTGGGCCCCGCGTACGGGCCCACCACGGAGTCACCTAGTGCAG	3460 fluorescence intensity (a.u.)
AAGATAGTGACGTACGTGCGGCCCATACCCCAATTCTCCCCGGAGTCACCTAGTGCAG	5840 fluorescence intensity (a.u.)

Carrying on:

Sequence	binding signal
TAAACATGCCATGTGTACATGCCACATCATCTATGCATGCCGGAGTCACCTAGTGCAG	15900 fluorescence intensity (a.u.)
AACTCAGGGGCGACGGCGACAATGATCGGATGAGAGCTTGCGGAGTCACCTAGTGCAG	3500 fluorescence intensity (a.u.)
GGTTTGGTGTTTGACATGTCACAGGGCGTTGCCGCCATTACGGAGTCACCTAGTGCAG	3690 fluorescence intensity (a.u.)
TTCTTGAAACTCCTCAAACATTGCACGTGTATAGAACTTTCGGAGTCACCTAGTGCAG	4330 fluorescence intensity (a.u.)
CCCACGGGATTGTCGGTCCCTCGTTTTGGTGATGCAGGACCGGAGTCACCTAGTGCAG	3570 fluorescence intensity (a.u.)
CAACATAAACTAGTGCTAACTAGCTATGATGTGTTGATGTCGGAGTCACCTAGTGCAG	3500 fluorescence intensity (a.u.)
GGAGGAGAGGGTACAGCCACCGCTGACACCTCTGCCAGGCCGGAGTCACCTAGTGCAG	5200 fluorescence intensity (a.u.)
ACCACCTAAGACACTTTTGTAGTAAACCTCACGTCAGTTTCGGAGTCACCTAGTGCAG	3230 fluorescence intensity (a.u.)
TCCGGGCCCACCACGTCCCGTATGACTGTATGAGTTGTGACGGAGTCACCTAGTGCAG	3610 fluorescence intensity (a.u.)
CCGCAACCCCACGAGGCCGCGACCGACCGACCTGTCACGACGGAGTCACCTAGTGCAG	4730 fluorescence intensity (a.u.)
AGAAAGCAACATGCTGTCCCGGTGGCACATCCGATTAGTACGGAGTCACCTAGTGCAG	3680 fluorescence intensity (a.u.)
AGCAAGTGACAGTCAGAACCCTCGAGCGTCATCAATTTCTCGGAGTCACCTAGTGCAG	4460 fluorescence intensity (a.u.)
CTCTTCGTTGCATTGCACTCCAGCTCACACGTCTCACCCCCGGAGTCACCTAGTGCAG	7320 fluorescence intensity (a.u.)
CATACATGTGTCCAAACATTCGATGTGACAGAGTAAAAGTCGGAGTCACCTAGTGCAG	3180 fluorescence intensity (a.u.)
GATTGCCCAGGTTTCACCGATGCCAGCTTGGCCGTGGTCGCGGAGTCACCTAGTGCAG	3900 fluorescence intensity (a.u.)
TCCAGGCTGCCATGCGTACGTGCGCGTGAAGCTCGCTAAGCGGAGTCACCTAGTGCAG	4430 fluorescence intensity (a.u.)
GGCGTGGCTCATCGTGGCCGGACACGTGCTGGCACGGCGCCGGAGTCACCTAGTGCAG	4880 fluorescence intensity (a.u.)
GTCATGACCAGACAGCAAAAGACGCAGTTTTGAGTCATTGCGGAGTCACCTAGTGCAG	5300 fluorescence intensity (a.u.)
GGAGAAAATATCAAATTTGTTCAACCATACACCCTTGTCTCGGAGTCACCTAGTGCAG	23100 fluorescence intensity (a.u.)
ATCAACACTTTGACTGTCAGCAAAATCATAAAGATTGATGCGGAGTCACCTAGTGCAG	3350 fluorescence intensity (a.u.)
AATGTAGGTACTAGGCCTTTGAGTTGTTATACAACAACTTCGGAGTCACCTAGTGCAG	26200 fluorescence intensity (a.u.)
